Data reported in the supplement of paper PMC4862054.
Small differences around the control level are noise.

How the values were obtained:
Assay in all cases: normalised response (% of control), CellTox Green; higher = less cell death (100 = DMSO, 0 = benzethonium chloride kill control)
Conditions in all cases: incubation time: 72 h
HCC1937 = system: HCC1937
Method: (§1)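 DSRT, 72 h incubation, CellTox Green / CellTiter-Glo readout. Signal is normalised to DMSO and benzethonium chloride controls. Value is the normalised response at the lowest tested concentration.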

HCC1143 = system: HCC1143
Method: as §1

CAL-85-1 = system: CAL-85-1
Method: as §1

Hs578T = system: Hs578T
Method: as §1

MDA-MB-453 = system: MDA-MB-453
Method: as §1

CAL-120 = system: CAL-120
Method: as §1

MDA-MB-468 = system: MDA-MB-468
Method: as §1

MFM-223 = system: MFM-223
Method: as §1

MDA-MB-231 = system: MDA-MB-231
Method: as §1

BT-474 = system: BT-474
Method: as §1

DU-4475 = system: DU-4475
Method: as §1

HDQ-P1 = system: HDQ-P1
Method: as §1

CAL-51 = system: CAL-51
Method: as §1

HCC1599 = system: HCC1599
Method: as §1

MCF-10A = system: MCF-10A
Method: as §1

MDA-MB-436 = system: MDA-MB-436
Method: as §1

BT-549 = system: BT-549
Method: as §1

CAL-148 = system: CAL-148
Method: as §1

SMILES | normalised response (HCC1937) | normalised response (HCC1143) | normalised response (CAL-85-1) | normalised response (Hs578T) | normalised response (MDA-MB-453) | normalised response (CAL-120) | normalised response (MDA-MB-468) | normalised response (MFM-223) | normalised response (MDA-MB-231) | normalised response (BT-474) | normalised response (DU-4475) | normalised response (HDQ-P1) | normalised response (CAL-51) | normalised response (HCC1599) | normalised response (MCF-10A) | normalised response (MDA-MB-436) | normalised response (BT-549) | normalised response (CAL-148)
CCc1c(C(=O)C(N)=O)c2c(OCC(=O)O)cccc2n1Cc1ccccc1 [Varespladib] (1 nM) | 112% | 122% | 99.1% | 114% | 98.4% | 104% | 66% | 51.9% | 107% | 99.4% | 105% | 75.1% | 112% | 95.3% | 100% | 98.8% | 91% | –
Cn1cc(CNCC2CCN(c3ncc(C(=O)NO)cn3)CC2)c2ccccc21 [Quisinostat] (0.1 nM) | 107% | 100% | 102% | 112% | 90.8% | 103% | 76.1% | 104% | 107% | 54.8% | 101% | 105% | 96.7% | 93.2% | 90.9% | 78.9% | 99.1% | 106%
Nc1nc(Cl)nc2c1ncn2[C@H]1C[C@H](O)[C@@H](CO)O1 [Cladribine] (0.1 nM) | 103% | 99.3% | 104% | 111% | 101% | 102% | 106% | 87.8% | 113% | 99.8% | 105% | 104% | 107% | 107% | 97.5% | 90.5% | 97.6% | 103%
CC(C)(C#N)c1cc(Cn2cncn2)cc(C(C)(C)C#N)c1 [Anastrozole] (1 nM) | 101% | 117% | 105% | 111% | 106% | 99.1% | 113% | 104% | 108% | 102% | 103% | 97.9% | 97.2% | 101% | – | 93.5% | 110% | 102%
Cc1c(CN2CCN(C(=O)[C@H](C)O)CC2)sc2c(N3CCOCC3)nc(-c3cnc(N)nc3)nc12 [GDC-0980] (1 nM) | 110% | 124% | 99.6% | 63% | 104% | 100% | 79.2% | 101% | 107% | 102% | 102% | 86% | 111% | 97.9% | 107% | 84.6% | 94.7% | 94.2%
C=CCNC1=C2C[C@@H](C)C[C@H](OC)[C@H](O)[C@@H](C)/C=C(\C)[C@H](OC(N)=O)[C@@H](OC)/C=C\C=C(/C)C(=O)NC(=CC1=O)C2=O [Tanespimycin] (1 nM) | 97.5% | 108% | 98.2% | 99.4% | 101% | 97.1% | 74.4% | 101% | 106% | 98.8% | 98.7% | 98% | 109% | 99.4% | 94.1% | – | 98.2% | 104%
